These are yes or no findings as the source states them, for the method shown. Binding seen in cells or lysates may run through a third protein. Some results given as binding are weak or reduced against the parent protein; the word gives no strength.
Target: Epidermal Growth Factors Receptor (human (from sEVs of human umbilical cord MSCs, taken up by RAW264.7 cells)) (UniProt P00533)
Test: co-IP; RAW264.7 cells that received 4D-sEVs, lysed in RIPA buffer with protease and phosphatase inhibitors; lysate pre-cleared, incubated with anti-IGFBP2, anti-EGFR or IgG (1:100) 2 h at room temperature, Protein A+G agarose overnight at 4 °C, washed 3 times with PBS, Western blot

Amino acid sequences for entries named in this document (tags omitted). Residues count along the entry.
UniProt P18065, residues 36-325: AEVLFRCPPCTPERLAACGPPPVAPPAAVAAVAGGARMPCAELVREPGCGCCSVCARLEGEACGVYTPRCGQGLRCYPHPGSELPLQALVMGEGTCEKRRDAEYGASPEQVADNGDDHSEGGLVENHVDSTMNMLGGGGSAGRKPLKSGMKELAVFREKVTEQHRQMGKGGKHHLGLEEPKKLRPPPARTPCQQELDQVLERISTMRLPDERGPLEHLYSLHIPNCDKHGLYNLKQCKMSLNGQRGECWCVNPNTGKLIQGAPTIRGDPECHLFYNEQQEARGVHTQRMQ

Insulin-like Growth Factor Binding Protein 2 (from UniProt P18065 36-325)
binding: binds
